For at least one compound, name, drawing or mass did not settle the structure.
Experiments:
Type in all cases: in vivo
Conditions in all cases: visual grade
Echinochloa crusgalli [1] = test: Herbicidal activity, post-emergency treatment on stem and leaves, 750 g ai/ha
Digitaria sanguinalis [2] = test: as above
Eleusine indica [3] = test: as above
Brassica juncea [4] = test: as above
Amaranthus retroflexus [5] = test: as above
Portulaca oleracea [6] = test: as above
Echinochloa crusgalli [7] = test: Weeding activity, pre-emergency treatment on soil, 750 g ai/ha
Digitaria sanguinalis [8] = test: as above
Eleusine indica [9] = test: as above
Brassica juncea [10] = test: as above
Amaranthus retroflexus [11] = test: as above
Portulaca oleracea [12] = test: as above

## CCC(=O)N(Cc1ccccc1Oc1nc(OC)cc(OC)n1)c1cc(C)ccn1 [Compound I-121]
Echinochloa crusgalli [1]
  weeding activity Echinochlea Crusgalli: 0 (same as control, no activity, shall be eliminated)
Digitaria sanguinalis [2]
  weeding activity Digitaria sanguinalis: 0 (same as control, no activity, shall be eliminated)
Eleusine indica [3]
  weeding activity Eleusine indica: 3 (moderate but insufficient activity, can be further improved)
Brassica juncea [4]
  weeding activity Brassica Juncea: 0 (same as control, no activity, shall be eliminated)
Amaranthus retroflexus [5]
  weeding activity Amaranthus retroflexus: 4 (good activity, can be considered,)
Portulaca oleracea [6]
  weeding activity Portulaca Oleracea: 0 (same as control, no activity, shall be eliminated)
Echinochloa crusgalli [7]
  weeding activity Echinochlea Crusgalli: 0 (same as control, no activity, shall be eliminated)
Digitaria sanguinalis [8]
  weeding activity Digitaria sanguinalis: 0 (same as control, no activity, shall be eliminated)
Eleusine indica [9]
  weeding activity Eleusine indica: 0 (same as control, no activity, shall be eliminated)
Brassica juncea [10]
  weeding activity Brassica Juncea: 0 (same as control, no activity, shall be eliminated)
Amaranthus retroflexus [11]
  weeding activity Amaranthus retroflexus: 0 (same as control, no activity, shall be eliminated)
Portulaca oleracea [12]
  weeding activity Portulaca Oleracea: 0 (same as control, no activity, shall be eliminated)

Reference: patent US6800590B2, “2-Pyrimidinyloxy-n-aryl-benzylamine derivatives,their processes and uses” (Shanghai Institute of Organic Chemistry, priority 2003, dated 2004)
